In article PMC11840727:
Results are given in words; binding and its absence hold for the method and conditions named. Binding seen in cells or lysates may run through a third protein. Here binding means that the protein was enriched with, or labelled near, the bait; the list need not be complete.

Amino acid sequences for entries named in this document (tags omitted).
UniProt P51784: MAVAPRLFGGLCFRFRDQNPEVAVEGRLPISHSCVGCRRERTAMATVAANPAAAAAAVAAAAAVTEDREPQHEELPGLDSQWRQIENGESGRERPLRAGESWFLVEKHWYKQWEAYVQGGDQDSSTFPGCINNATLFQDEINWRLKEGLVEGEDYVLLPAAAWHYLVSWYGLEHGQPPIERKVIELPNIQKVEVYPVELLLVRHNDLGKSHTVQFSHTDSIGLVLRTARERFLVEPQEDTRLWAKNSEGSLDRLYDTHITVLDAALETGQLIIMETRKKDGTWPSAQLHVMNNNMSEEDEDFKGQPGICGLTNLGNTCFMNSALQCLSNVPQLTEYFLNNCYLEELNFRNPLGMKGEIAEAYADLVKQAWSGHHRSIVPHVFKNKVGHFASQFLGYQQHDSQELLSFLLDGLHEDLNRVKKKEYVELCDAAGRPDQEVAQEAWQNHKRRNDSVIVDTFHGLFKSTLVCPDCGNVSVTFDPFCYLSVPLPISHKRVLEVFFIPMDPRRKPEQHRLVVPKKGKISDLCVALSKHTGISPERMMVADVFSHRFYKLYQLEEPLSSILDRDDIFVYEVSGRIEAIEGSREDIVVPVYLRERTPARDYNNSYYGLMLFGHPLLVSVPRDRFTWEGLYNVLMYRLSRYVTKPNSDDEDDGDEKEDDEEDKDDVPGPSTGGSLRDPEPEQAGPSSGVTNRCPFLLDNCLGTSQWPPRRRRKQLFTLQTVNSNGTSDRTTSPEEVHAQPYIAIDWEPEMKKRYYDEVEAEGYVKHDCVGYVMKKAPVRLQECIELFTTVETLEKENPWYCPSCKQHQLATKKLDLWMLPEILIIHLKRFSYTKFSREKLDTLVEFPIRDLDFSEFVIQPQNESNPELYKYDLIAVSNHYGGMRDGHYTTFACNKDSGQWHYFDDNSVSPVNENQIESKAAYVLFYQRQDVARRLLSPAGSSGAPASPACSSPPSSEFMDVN

Molecular target: T1, DLGAP5 overexpressed in 293T cells (bait of the IP with LC-MS/MS) (UniProt Q15398)
T1 sequence: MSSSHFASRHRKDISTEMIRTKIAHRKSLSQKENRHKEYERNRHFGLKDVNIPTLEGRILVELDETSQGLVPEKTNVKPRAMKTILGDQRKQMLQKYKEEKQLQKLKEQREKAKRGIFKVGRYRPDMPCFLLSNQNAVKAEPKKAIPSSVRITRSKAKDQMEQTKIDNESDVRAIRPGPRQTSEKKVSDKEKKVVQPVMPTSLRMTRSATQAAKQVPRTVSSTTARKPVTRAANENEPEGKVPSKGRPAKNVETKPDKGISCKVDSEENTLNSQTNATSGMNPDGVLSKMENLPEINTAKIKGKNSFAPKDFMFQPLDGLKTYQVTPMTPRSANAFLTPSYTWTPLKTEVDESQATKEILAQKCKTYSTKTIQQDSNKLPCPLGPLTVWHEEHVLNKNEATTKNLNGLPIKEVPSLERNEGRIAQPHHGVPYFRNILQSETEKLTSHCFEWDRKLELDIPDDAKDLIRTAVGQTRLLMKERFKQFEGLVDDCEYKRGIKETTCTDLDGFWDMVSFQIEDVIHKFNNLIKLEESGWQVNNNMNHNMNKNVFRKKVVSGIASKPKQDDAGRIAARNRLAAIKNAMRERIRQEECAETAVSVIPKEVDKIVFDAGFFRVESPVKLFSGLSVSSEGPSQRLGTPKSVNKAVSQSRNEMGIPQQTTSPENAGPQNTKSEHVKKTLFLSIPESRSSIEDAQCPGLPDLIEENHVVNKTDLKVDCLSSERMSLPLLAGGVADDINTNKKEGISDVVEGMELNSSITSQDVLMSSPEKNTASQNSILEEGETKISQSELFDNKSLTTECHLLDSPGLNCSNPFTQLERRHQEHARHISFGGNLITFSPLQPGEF
Assay: affinity purification with mass spectrometry; IP of DLGAP5 overexpressed in 293T cells and subsequent LC-MS/MS

binding: binds
Substance: USP11 (found by LC-MS/MS in the IP of DLGAP5) (from UniProt P51784 1-963) (enzyme)
